# Data from publication PMC11005723, “Development of Complementary Photo‐arginine/lysine to Promote Discovery of Arg/Lys hPTMs Interactomes” (Advanced Science, 2024).
# Further values from the same series stand in other lists.
# System: HEK293T nuclear lysates
# Test: SILAC‐based pull‐down proteomics H4K5me2/H4K5 (probes 7/5)
# Format: binding, human
# Settings: for E6 log2 (H4K5me2/H4K5): run E6; for F6 log2 (H4K5me2/H4K5): run F6
substance,measurement,setting,value
probe 7: H4K5me2 peptide probe with photo‐arginine R(dz) and K(biotin) (SGRGKGGKGLGKGGK; photo-arginine R(dz) at 3; dimethyl-lysine at 5; K(biotin) at 15),E6 log2 (H4K5me2/H4K5),protein A0A1X7SBZ2 DDX17,0.3284
same,F6 log2 (H4K5me2/H4K5),protein A0A1X7SBZ2 DDX17,0.2858
same,E6 log2 (H4K5me2/H4K5),protein A0A3B3IRI2 CTPS1,0.2716
same,F6 log2 (H4K5me2/H4K5),protein A0A3B3IRI2 CTPS1,0.175
same,E6 log2 (H4K5me2/H4K5),protein A0A087WUK2 HNRNPDL,0.3167
same,F6 log2 (H4K5me2/H4K5),protein A0A087WUK2 HNRNPDL,0.2835
same,E6 log2 (H4K5me2/H4K5),protein A0A087WWS1 THOC1,0.2097
same,F6 log2 (H4K5me2/H4K5),protein A0A087WWS1 THOC1,0.02318
same,E6 log2 (H4K5me2/H4K5),protein A0A087WX29 TARDBP,0.3505
same,F6 log2 (H4K5me2/H4K5),protein A0A087WX29 TARDBP,0.3556
same,E6 log2 (H4K5me2/H4K5),protein A0A286YF22 PHGDH,0.3667
same,F6 log2 (H4K5me2/H4K5),protein A0A286YF22 PHGDH,0.4108
same,E6 log2 (H4K5me2/H4K5),protein A0A494C1G8 SP3,0.2575
same,F6 log2 (H4K5me2/H4K5),protein A0A494C1G8 SP3,-0.03927
same,E6 log2 (H4K5me2/H4K5),protein B1AK87 CAPZB,0.3528
same,F6 log2 (H4K5me2/H4K5),protein B1AK87 CAPZB,0.3183
same,E6 log2 (H4K5me2/H4K5),protein B5MDQ0 ERCC6L,0.3213
same,F6 log2 (H4K5me2/H4K5),protein B5MDQ0 ERCC6L,0.08647
same,E6 log2 (H4K5me2/H4K5),protein B7Z7P8 ETF1,0.3032
same,F6 log2 (H4K5me2/H4K5),protein B7Z7P8 ETF1,0.3922
same,E6 log2 (H4K5me2/H4K5),protein B7ZAR1 CCT5,0.2917
same,F6 log2 (H4K5me2/H4K5),protein B7ZAR1 CCT5,0.4373
same,E6 log2 (H4K5me2/H4K5),protein D6R9P3 HNRNPAB,0.3354
same,F6 log2 (H4K5me2/H4K5),protein D6R9P3 HNRNPAB,-0.05686
same,E6 log2 (H4K5me2/H4K5),protein E9PCY7 HNRNPH1,0.3601
same,F6 log2 (H4K5me2/H4K5),protein E9PCY7 HNRNPH1,0.3078
same,E6 log2 (H4K5me2/H4K5),protein E9PG73 PPIG,0.288
same,F6 log2 (H4K5me2/H4K5),protein E9PG73 PPIG,-0.669
same,E6 log2 (H4K5me2/H4K5),protein E9PJD9 RPL27A,0.3067
same,F6 log2 (H4K5me2/H4K5),protein E9PJD9 RPL27A,-0.08318
same,E6 log2 (H4K5me2/H4K5),protein F5H783 STIP1,0.2176
same,F6 log2 (H4K5me2/H4K5),protein F5H783 STIP1,0.1355
same,E6 log2 (H4K5me2/H4K5),protein F8W1R7 MYL6,0.2038
same,F6 log2 (H4K5me2/H4K5),protein F8W1R7 MYL6,0.06067
same,E6 log2 (H4K5me2/H4K5),protein H0YDJ3 PRPF4B,0.2441
same,F6 log2 (H4K5me2/H4K5),protein H0YDJ3 PRPF4B,-0.4152
same,E6 log2 (H4K5me2/H4K5),protein I3L0M3 MAZ,0.3234
same,F6 log2 (H4K5me2/H4K5),protein I3L0M3 MAZ,-0.1208
same,E6 log2 (H4K5me2/H4K5),protein J3QT28 BUB3,0.2499
same,F6 log2 (H4K5me2/H4K5),protein J3QT28 BUB3,0.415
same,E6 log2 (H4K5me2/H4K5),protein O15042 U2SURP,0.249
same,F6 log2 (H4K5me2/H4K5),protein O15042 U2SURP,0.1825
same,E6 log2 (H4K5me2/H4K5),protein O43390 HNRNPR,0.2428
same,F6 log2 (H4K5me2/H4K5),protein O43390 HNRNPR,0.04676
same,E6 log2 (H4K5me2/H4K5),protein O43776 NARS,0.362
same,F6 log2 (H4K5me2/H4K5),protein O43776 NARS,0.5639
same,E6 log2 (H4K5me2/H4K5),protein O43929 ORC4,0.2563
same,F6 log2 (H4K5me2/H4K5),protein O43929 ORC4,0.2733
same,E6 log2 (H4K5me2/H4K5),protein O60934 NBN,0.2231
same,F6 log2 (H4K5me2/H4K5),protein O60934 NBN,-0.0703
same,E6 log2 (H4K5me2/H4K5),protein O75131 CPNE3,0.231
same,F6 log2 (H4K5me2/H4K5),protein O75131 CPNE3,0.1031
same,E6 log2 (H4K5me2/H4K5),protein O94906 PRPF6,0.334
same,F6 log2 (H4K5me2/H4K5),protein O94906 PRPF6,-0.2379
same,E6 log2 (H4K5me2/H4K5),protein O95232 LUC7L3,0.2019
same,F6 log2 (H4K5me2/H4K5),protein O95232 LUC7L3,0.2014
same,E6 log2 (H4K5me2/H4K5),protein O96019 ACTL6A,0.2097
same,F6 log2 (H4K5me2/H4K5),protein O96019 ACTL6A,0.562
same,E6 log2 (H4K5me2/H4K5),protein O96028 WHSC1,0.3043
same,F6 log2 (H4K5me2/H4K5),protein O96028 WHSC1,0.2369
same,E6 log2 (H4K5me2/H4K5),protein P07195 LDHB,0.3858
same,F6 log2 (H4K5me2/H4K5),protein P07195 LDHB,0.3065
same,E6 log2 (H4K5me2/H4K5),protein P07355 ANXA2,0.2408
same,F6 log2 (H4K5me2/H4K5),protein P07355 ANXA2,0.08198
same,E6 log2 (H4K5me2/H4K5),protein P08621 SNRNP70,0.1791
same,F6 log2 (H4K5me2/H4K5),protein P08621 SNRNP70,-0.07961
same,E6 log2 (H4K5me2/H4K5),protein P09936 UCHL1,0.3837
same,F6 log2 (H4K5me2/H4K5),protein P09936 UCHL1,0.4055
same,E6 log2 (H4K5me2/H4K5),protein P10809 HSPD1,0.2112
same,F6 log2 (H4K5me2/H4K5),protein P10809 HSPD1,0.1765
same,E6 log2 (H4K5me2/H4K5),protein P11142 HSPA8,0.2979
same,F6 log2 (H4K5me2/H4K5),protein P11142 HSPA8,0.3312
same,E6 log2 (H4K5me2/H4K5),protein P11586 MTHFD1,0.2893
same,F6 log2 (H4K5me2/H4K5),protein P11586 MTHFD1,-0.1283
same,E6 log2 (H4K5me2/H4K5),protein P13639 EEF2,0.2414
same,F6 log2 (H4K5me2/H4K5),protein P13639 EEF2,0.2692
same,E6 log2 (H4K5me2/H4K5),protein P14618 PKM,0.2929
same,F6 log2 (H4K5me2/H4K5),protein P14618 PKM,0.3389
same,E6 log2 (H4K5me2/H4K5),protein P17987 TCP1,0.2432
same,F6 log2 (H4K5me2/H4K5),protein P17987 TCP1,0.2331
same,E6 log2 (H4K5me2/H4K5),protein P22087 FBL,0.2496
same,F6 log2 (H4K5me2/H4K5),protein P22087 FBL,0.1529
same,E6 log2 (H4K5me2/H4K5),protein P22102 GART,0.3572
same,F6 log2 (H4K5me2/H4K5),protein P22102 GART,0.1465
same,E6 log2 (H4K5me2/H4K5),protein P23526 AHCY,0.3481
same,F6 log2 (H4K5me2/H4K5),protein P23526 AHCY,0.5326
same,E6 log2 (H4K5me2/H4K5),protein P25205 MCM3,0.2192
same,F6 log2 (H4K5me2/H4K5),protein P25205 MCM3,-0.008369
same,E6 log2 (H4K5me2/H4K5),protein P25398 RPS12,0.2818
same,F6 log2 (H4K5me2/H4K5),protein P25398 RPS12,0.2555
same,E6 log2 (H4K5me2/H4K5),protein P27348 YWHAQ,0.2059
same,F6 log2 (H4K5me2/H4K5),protein P27348 YWHAQ,0.3151
same,E6 log2 (H4K5me2/H4K5),protein P30041 PRDX6,0.2843
same,F6 log2 (H4K5me2/H4K5),protein P30041 PRDX6,0.3778
same,E6 log2 (H4K5me2/H4K5),protein P30101 PDIA3,0.2983
same,F6 log2 (H4K5me2/H4K5),protein P30101 PDIA3,0.2113
same,E6 log2 (H4K5me2/H4K5),protein P33993 MCM7,0.3416
same,F6 log2 (H4K5me2/H4K5),protein P33993 MCM7,0.3599
same,E6 log2 (H4K5me2/H4K5),protein P35249 RFC4,0.4005
same,F6 log2 (H4K5me2/H4K5),protein P35249 RFC4,0.3707
same,E6 log2 (H4K5me2/H4K5),protein P36873 PPP1CC,0.2147
same,F6 log2 (H4K5me2/H4K5),protein P36873 PPP1CC,0.5752
same,E6 log2 (H4K5me2/H4K5),protein P41091 EIF2S3,0.22
same,F6 log2 (H4K5me2/H4K5),protein P41091 EIF2S3,0.4328
same,E6 log2 (H4K5me2/H4K5),protein P42166 TMPO,0.1875
same,F6 log2 (H4K5me2/H4K5),protein P42166 TMPO,0.1804
same,E6 log2 (H4K5me2/H4K5),protein P43246 MSH2,0.1997
same,F6 log2 (H4K5me2/H4K5),protein P43246 MSH2,0.3888
same,E6 log2 (H4K5me2/H4K5),protein P43487 RANBP1,0.2108
same,F6 log2 (H4K5me2/H4K5),protein P43487 RANBP1,0.05649
same,E6 log2 (H4K5me2/H4K5),protein P50990 CCT8,0.3576
